# Measured values reported in the supplement of paper PMC8728848.
# The list shows a part of the results.
# B1: HopZSSI-T (Helicobacter pylori), B5Z6D0 (protein)
# chain: MGSSHHHHHHSSGLVPRGSHMENLYFQGEDNGFFISAGYQIGEAAQMVKNTGELKKLSDTYENLSNLLTNFNNLNQAVTNASSPSEINAAIDNLKANTQGLTGEKTNSPAYQAVYLALNAAVGLWNVIAYNVQCGPGNSSQQSVTFEGQPGHNSSSINCNLTGYNNGVSGPLSIDNFKQLNQAYQVLQQALKQGVPVLNNTNQKIEVKVTTQTNGQSSKETTTTTTTNDAQTLLQEASKMIDVLTTNCPWVNHNPGQNGGAPWGLIRQECVSGFATEFSAVTSMIKNAQEIVTQAQSLNANQNNQNAPQDFNPYTSADRAFAQNMLNHAQAQAKILELADQMKKDLNTIPSQFITNYLAACRIDGTTPSQGVTNNTWGAGCAYVEETITALNNSLAHFGTQAEQIKQSELLARTILDFRGSLSTLNSTYNSITTTASNTPNSPFLKNLISQSTNPNNPGGLQAVYQVNQSAYSQLLSATQELGHNPFRRIGLISSQT
# Target: Neu5Gc(b2-6)Gal(b1-4)GlcNAc
# Test: glycan array binding signal (z-score within array); higher = stronger binding
# Conditions: glycan notation: IUPAC condensed, linker removed
# Outline: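 From the Consortium for Functional Glycomics database, 3228 arrays were curated, keeping only those whose protein sequence was available. Binding is given as a within-array Z-score averaged across arrays sharing a protein sequence and across linkers. Negative Z-scores can be read as non-binding.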
binder,measurement,value
B1,glycan array binding signal (z-score),-0.678
